Data published in US11207343B2, “Compositions and therapeutic methods” (AyuVis Research LLC, priority 2016, dated 2021).
Some entries share one result that the patent states for a list of compounds.

Protein sequences, listed by entry. Tags and fused reporters are not part of them. Residues count along the entry.
UniProt O60603, 21-784: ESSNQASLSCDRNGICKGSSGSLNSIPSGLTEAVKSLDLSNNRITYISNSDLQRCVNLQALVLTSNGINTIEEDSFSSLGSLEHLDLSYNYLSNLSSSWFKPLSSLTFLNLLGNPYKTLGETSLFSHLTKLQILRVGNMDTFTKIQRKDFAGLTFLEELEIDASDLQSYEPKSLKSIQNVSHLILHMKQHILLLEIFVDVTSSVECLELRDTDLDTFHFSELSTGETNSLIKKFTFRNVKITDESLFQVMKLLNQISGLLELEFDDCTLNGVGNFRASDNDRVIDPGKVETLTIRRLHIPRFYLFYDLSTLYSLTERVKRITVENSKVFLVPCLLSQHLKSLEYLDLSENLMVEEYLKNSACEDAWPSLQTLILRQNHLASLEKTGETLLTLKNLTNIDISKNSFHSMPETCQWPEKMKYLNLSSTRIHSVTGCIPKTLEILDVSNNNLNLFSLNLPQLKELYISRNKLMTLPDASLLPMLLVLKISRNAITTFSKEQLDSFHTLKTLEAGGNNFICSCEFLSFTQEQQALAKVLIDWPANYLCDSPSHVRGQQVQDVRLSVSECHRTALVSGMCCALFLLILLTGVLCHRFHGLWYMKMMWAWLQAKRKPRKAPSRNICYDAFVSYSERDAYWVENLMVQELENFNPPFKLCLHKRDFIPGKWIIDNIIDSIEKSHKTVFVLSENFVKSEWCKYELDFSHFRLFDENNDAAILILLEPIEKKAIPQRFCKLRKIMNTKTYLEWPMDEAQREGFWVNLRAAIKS
UniProt O00206, 24-839: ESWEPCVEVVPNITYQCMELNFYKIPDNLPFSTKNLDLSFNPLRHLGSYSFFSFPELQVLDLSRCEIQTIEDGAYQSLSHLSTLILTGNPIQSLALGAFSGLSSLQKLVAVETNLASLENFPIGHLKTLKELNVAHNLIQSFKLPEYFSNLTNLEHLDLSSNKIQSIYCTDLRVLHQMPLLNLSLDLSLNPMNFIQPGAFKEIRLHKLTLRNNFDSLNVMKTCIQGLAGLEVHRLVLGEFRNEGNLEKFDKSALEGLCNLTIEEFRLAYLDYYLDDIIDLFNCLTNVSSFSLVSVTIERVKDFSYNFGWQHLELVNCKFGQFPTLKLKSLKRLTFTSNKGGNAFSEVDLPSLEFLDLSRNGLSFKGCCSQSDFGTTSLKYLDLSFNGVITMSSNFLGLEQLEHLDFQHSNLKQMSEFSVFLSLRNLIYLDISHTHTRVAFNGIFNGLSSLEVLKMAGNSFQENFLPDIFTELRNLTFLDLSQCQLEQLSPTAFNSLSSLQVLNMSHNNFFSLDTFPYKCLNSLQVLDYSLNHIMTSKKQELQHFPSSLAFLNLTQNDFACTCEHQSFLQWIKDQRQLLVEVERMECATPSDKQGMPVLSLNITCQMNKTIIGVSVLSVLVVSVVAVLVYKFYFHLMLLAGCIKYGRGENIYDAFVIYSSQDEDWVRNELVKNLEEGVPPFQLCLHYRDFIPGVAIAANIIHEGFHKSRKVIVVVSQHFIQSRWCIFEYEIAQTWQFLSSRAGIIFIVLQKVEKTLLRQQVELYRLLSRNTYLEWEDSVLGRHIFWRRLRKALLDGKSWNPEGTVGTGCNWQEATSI

How the values were obtained:
[1] = tested on: LPS induced cytokines (TNF-α, IL-1β and IL-6) in human monocytes; assay: Inhibition of LPS induced inflammatory mediators in human monocytes; assay type: cell-based; conditions: 10 μM, 48 h
Experimental: To understand the structural requirement and limitations to probe the TLR4 binding pocket for optimal potency and efficacy, we have studied the ability of chitooligomers to inhibit LPS induced inflammation in human monocytes (FIG-8 A-B). Compounds 1-4 inhibited LPS induced cytokines TNF-α, IL-1β and IL-6) in a statistically significant manner at 10 μM concentration. […] The protocol was followed as described [Panda etal, PLoS Pathog 2012, 8, e1002717]. Human monocytes were stimulated with LPS along with the series of compounds (10 μM) for 48 h. TNF-α, IL-1β, I1-6 in culture supernatants were quantified according to the manufacturer's instruction. Similarly, other analogs were assessed for their ability to inhibit LPS induced TNF-α production in human monocytes.

[2] = biological target: T1, TLR2 receptor (Homo sapiens, UniProt O60603); assay: ELISA binding of compounds to TLR2 from human monocyte lysates; conditions: compounds 10 μM, anti-TLR2 antibody
T1 construct: It was then incubated with human monocyte lysates and then probed with anti-TLR4 and anti-TLR2 antibodies; endogenous in cells; host or cells: primary human monocytes isolated from LeukoPak blood sample (lysate)

[3] = biological target: T2, TLR4 receptor (Homo sapiens, UniProt O00206); assay: ELISA binding of compounds to TLR4 from human monocyte lysates; conditions: compounds 10 μM, anti-TLR4 antibody
T2 construct: It was then incubated with human monocyte lysates and then probed with anti-TLR4 and anti-TLR2 antibodies; endogenous in cells; host or cells: primary human monocytes isolated from LeukoPak blood sample (lysate)

Substance	inhibition of LPS induced cytokines (TNF-α, IL-1β and IL-6) [1]	binding to TLR2 receptor [2]	binding to TLR4 receptor [3]
chitohexaose [Compound 1]	inhibited	not to TLR2 receptor	binds to TLR4 receptor effectively
chitooctaose [Compound 3]	inhibited	not to TLR2 receptor	binds to TLR4 receptor effectively
